Measurements from patent US20240109942A1, “CHOLECYSTOKININ (CCK) SECRETION-PROMOTING PEPTIDE TARGETING CALCIUM-SENSING RECEPTOR, AND PREPARATION METHOD AND USE THEREOF” (University of Shanghai for Science and Technology, priority 2022, published 2024).
Not every detail of the peptide structures is certain; ends, links or a residue may be inferred. Where no end group is shown, it is not given here.

Tests used:
[1] = molecular target: T1, calcium-sensing receptor (CaSR) (Mus musculus, UniProt Q9QY96); experiment: CCK secretion by STC-1 cell under different inhibitors (mechanism of action); assay type: cell-based; conditions: 10 min pretreatment, peptide 2 h, FIGS. 9A-9C
T1 construct: endogenous in cells; host or cells: STC-1 cells
T1 sequence (Q9QY96 20-1079): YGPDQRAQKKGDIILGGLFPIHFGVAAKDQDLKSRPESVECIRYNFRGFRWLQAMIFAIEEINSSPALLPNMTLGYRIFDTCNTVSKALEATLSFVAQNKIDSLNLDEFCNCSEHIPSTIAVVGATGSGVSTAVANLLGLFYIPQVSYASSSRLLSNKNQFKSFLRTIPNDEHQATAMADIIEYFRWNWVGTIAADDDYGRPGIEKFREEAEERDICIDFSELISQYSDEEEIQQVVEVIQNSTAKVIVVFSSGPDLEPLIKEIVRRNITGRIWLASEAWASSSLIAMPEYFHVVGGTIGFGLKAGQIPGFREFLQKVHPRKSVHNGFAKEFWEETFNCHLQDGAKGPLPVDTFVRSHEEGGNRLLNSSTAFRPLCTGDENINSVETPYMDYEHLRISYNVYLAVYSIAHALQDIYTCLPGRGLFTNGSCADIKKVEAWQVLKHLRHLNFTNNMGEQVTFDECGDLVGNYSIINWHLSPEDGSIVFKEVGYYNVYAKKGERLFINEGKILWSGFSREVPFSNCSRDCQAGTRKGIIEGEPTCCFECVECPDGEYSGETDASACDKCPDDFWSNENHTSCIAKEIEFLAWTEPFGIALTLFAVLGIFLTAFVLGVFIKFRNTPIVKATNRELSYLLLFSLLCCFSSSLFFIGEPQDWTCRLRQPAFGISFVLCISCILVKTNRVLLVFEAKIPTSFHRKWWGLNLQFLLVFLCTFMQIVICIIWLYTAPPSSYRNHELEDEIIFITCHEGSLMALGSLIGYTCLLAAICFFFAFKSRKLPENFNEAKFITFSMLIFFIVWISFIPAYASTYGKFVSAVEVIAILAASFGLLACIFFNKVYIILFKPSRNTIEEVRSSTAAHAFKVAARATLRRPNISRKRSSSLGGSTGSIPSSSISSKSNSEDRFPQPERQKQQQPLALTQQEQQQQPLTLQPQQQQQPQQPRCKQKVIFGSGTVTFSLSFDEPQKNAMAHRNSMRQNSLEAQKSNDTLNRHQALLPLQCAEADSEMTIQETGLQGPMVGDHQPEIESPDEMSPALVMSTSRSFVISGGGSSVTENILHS

[2] = tested on: STC-1 cell; experiment: CCK secretion by STC-1 cell (CCK kit); assay type: cell-based; conditions: peptide 0.2 mM, 2 mM and 5 mM in Hank's buffer, 2 h at 37° C.; FIG. 3

With “QGDVVALPA [QGDVVALPA, Gln-Gly-Asp-Val-Val-Ala-Leu-Pro-Ala]” the “CCK secretion by STC-1 cells after pretreatment with free calcium ion chelator BAPTA-AM” value ([1]; BAPTA-AM 25 μM) was “required intracellular Ca^2+ mobilization”, the “CCK secretion by STC-1 cells after pretreatment with CaSR specific antagonist NPS 2143” value ([1]; NPS 2143 25 μM) was “a CaSR of a cell membrane mediated a process of the active peptide of QGDVVALPA inducing secretion of CCK” and the “CCK secretion by STC-1 cells after pretreatment with Gq inhibitor YM 254890” value ([1]; YM 254890 10 μM) was “involved activation of a Gq signal pathway”. For the same sequence, the “secretion of CCK by the STC-1 cell” value [2] was “increased secretion of the CCK in a dose-dependent manner”.
